# Assay results taken from publication PMC12040169 (PLOS Biology, 2025).
# The list shows a part of the results.
# Test system: T1, CTL2-GFP (C. trachomatis L2/434/Bu, GFP-expressing)
# T1 construct: L2/434/Bu, GFP-expressing
# Design: species or system HeLa; Intracellular C. trachomatis growth in HeLa cells, bulk GFP fluorescence relative to DMSO
# Details: bulk GFP, single well; 28.5 h, 10 µM; inhibitor
row,SMILES,% of control remaining [%]
1,CC1CN(S(=O)(=O)N2CCOCC2)CCN1S(=O)(=O)N1CCOCC1 (stereo not shown) [CBK269011],94.6139
2,O=C(NCCO)c1cccc(-c2cncc(NCCCN3CCOCC3)n2)c1 [CBK065432],169.218
3,Cc1sc(-c2cnccn2)nc1O [CBK067738],104.624
4,O=C(COc1ccc2ccccc2c1)Nc1ccc(S(=O)(=O)N2CCCCC2)cc1 [CBK263765],95.4302
5,CC(=O)N1CCc2nc(C)nc(N(C)Cc3cnn(C(C)C)c3)c2CC1 [CBK306968],136.223
6,CCN(CC)c1c(C)nc2ccc(C(=O)N(C)CCN(C)C)cn12 [CBK145950],100
7,O=C(Nc1ccncc1)c1cc(-c2ccncc2)nc2ccccc12 [CBK287787],125.645
8,O=C(N[C@H]1CCN2C(=O)N(c3ccc(Br)cc3)C(=O)[C@@H]2C1)c1cccnc1 [CBK289557],141.857
9,O=[N+]([O-])c1ccc(-c2csc(Nc3ccc4c(c3)OCO4)n2)cc1 [CBK262448B],94.0752
10,COc1ccc(OC)c2c1cc(C(=O)NC[C@H]1CC[C@H](C(=O)O)CC1)n2C [CBK286636],103.492
11,Cc1cc(/C=C(/C#N)c2ccc(C(=O)O)cc2)c(C)n1-c1ccc(S(N)(=O)=O)cc1 [CBK268896],88.5266
12,CN(C)C(CC(=O)Nc1cccc(Cl)c1Cl)C(=O)O (stereo not shown) [CBK266952],119.239
13,O=C(O)CSc1nnc(-c2ccncc2)n1-c1ccccc1 [CBK264426],112.9
14,COc1ccc(Br)c(C(CO)N(C)C(=O)CC#N)c1 (stereo not shown) [CBK304240],74.5174
15,Cc1cc(F)ccc1S(=O)(=O)N1CCC2(CC1)CNC(=O)C2 [CBK283354],121.56
16,c1nc(N2CCOCC2)c2cn[nH]c2n1 [CBK016811],128.835
17,CS(=O)(=O)Nc1ncc(-c2ccco2)cc1C(=O)NCCc1c[nH]c2ccccc12 [CBK076569],122.156
18,Cn1cc(CN2C[C@H]3CN(C(=O)C4CCC4)C[C@@]3(C(=O)O)C2)cc1C#N [CBK307105],105.821
19,CCOC(=O)c1c(C)oc2ccc(OCC(=O)c3ccc(Br)cc3)cc12 [CBK263841],100
20,CNC(=O)N1CC(=O)N(Cc2cccc(Cl)c2)C1=O [CBK001918],115.001
21,CC(C)(C)c1cnc(C(=O)NC2CCCN(c3ncccn3)C2)o1 (stereo not shown) [CBK305777],141.594
22,CNC(=O)CC1CCN(c2cc(C#N)ccc2C(F)(F)F)CC1 [CBK306450],64.8932

# 2 consecutive compounds from above:
row,SMILES,% of control remaining [%]
20,CNC(=O)N1CC(=O)N(Cc2cccc(Cl)c2)C1=O [CBK001918],115.001
21,CC(C)(C)c1cnc(C(=O)NC2CCCN(c3ncccn3)C2)o1 (stereo not shown) [CBK305777],141.594
